# Results from publication PMC8015235.
# Chains of the proteins cited; added tags and fusions are not shown.
# UniProt Q02455: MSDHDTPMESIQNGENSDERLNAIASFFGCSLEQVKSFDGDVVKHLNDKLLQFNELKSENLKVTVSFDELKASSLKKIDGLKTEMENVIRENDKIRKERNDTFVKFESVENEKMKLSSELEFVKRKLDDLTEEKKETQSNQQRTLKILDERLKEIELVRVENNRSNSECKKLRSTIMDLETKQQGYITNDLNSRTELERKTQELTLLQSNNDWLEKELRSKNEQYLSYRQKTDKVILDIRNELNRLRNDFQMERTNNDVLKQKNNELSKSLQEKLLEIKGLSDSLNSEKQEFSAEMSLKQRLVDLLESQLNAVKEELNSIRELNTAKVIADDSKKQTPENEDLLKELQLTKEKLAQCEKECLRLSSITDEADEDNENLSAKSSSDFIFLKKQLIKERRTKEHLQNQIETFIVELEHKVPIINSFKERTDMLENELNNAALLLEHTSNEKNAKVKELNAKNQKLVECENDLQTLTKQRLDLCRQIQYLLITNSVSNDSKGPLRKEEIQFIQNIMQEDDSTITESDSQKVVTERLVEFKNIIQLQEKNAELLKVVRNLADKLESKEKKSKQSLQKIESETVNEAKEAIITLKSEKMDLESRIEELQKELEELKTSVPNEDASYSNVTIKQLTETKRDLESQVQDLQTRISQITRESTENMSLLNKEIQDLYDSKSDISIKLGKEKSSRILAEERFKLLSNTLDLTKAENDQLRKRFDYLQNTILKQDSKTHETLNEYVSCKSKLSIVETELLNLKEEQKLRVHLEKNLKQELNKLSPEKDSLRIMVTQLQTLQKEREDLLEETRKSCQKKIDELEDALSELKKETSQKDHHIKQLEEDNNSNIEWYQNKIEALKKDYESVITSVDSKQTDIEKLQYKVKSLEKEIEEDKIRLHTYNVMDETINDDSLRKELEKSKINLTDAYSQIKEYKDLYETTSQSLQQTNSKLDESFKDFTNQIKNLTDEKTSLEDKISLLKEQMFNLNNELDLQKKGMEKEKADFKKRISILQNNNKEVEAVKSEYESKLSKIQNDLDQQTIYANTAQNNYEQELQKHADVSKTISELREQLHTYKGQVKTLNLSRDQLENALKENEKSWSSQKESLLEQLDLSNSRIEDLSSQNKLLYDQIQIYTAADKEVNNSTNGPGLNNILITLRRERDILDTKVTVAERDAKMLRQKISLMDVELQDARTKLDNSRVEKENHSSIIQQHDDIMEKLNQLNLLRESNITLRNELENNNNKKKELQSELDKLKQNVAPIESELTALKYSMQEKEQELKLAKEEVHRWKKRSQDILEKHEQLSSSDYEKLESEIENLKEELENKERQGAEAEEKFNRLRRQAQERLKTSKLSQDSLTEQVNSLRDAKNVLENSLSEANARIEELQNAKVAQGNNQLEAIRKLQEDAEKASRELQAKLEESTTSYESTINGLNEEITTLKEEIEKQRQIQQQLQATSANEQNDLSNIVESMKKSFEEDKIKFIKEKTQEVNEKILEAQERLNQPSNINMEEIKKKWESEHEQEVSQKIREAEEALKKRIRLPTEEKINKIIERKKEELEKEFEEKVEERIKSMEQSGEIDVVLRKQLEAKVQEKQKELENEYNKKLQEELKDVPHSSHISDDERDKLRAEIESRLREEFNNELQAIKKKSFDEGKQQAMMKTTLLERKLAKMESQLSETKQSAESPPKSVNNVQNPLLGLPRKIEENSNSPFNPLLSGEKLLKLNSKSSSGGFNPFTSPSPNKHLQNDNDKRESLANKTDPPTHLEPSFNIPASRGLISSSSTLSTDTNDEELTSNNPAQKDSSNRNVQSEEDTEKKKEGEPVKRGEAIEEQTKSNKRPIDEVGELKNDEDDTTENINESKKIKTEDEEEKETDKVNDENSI
# T1: Cex1-HA (S. cerevisiae) (UniProt Q12453)
# T1 sequence: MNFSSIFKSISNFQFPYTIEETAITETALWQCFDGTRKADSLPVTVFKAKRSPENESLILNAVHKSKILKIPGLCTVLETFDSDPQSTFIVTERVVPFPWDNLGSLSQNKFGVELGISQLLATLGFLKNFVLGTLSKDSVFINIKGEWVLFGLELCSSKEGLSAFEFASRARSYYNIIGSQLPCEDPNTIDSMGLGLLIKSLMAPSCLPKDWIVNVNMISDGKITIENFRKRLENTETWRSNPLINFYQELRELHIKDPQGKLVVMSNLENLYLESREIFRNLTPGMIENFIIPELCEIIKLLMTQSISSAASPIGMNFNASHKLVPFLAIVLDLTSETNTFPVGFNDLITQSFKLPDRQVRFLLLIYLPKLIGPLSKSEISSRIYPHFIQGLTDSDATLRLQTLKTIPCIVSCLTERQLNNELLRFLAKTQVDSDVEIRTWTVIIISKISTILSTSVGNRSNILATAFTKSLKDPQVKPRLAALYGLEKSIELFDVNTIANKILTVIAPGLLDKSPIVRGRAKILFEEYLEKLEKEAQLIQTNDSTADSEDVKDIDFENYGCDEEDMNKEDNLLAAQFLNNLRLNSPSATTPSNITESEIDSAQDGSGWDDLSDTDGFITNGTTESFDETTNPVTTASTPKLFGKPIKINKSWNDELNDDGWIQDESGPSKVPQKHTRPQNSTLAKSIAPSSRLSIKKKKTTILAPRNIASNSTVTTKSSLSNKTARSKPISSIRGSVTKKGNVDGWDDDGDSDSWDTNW
# B1: Sec28 (ε-COP) (protein, UniProt P40509 1-296)
# chain: MDYFNIKQNYYTGNFVQCLQEIEKFSKVTDNTLLFYKAKTLLALGQYQSQDPTSKLGKVLDLYVQFLDTKNIEELENLLKDKQNSPYELYLLATAQAILGDLDKSLETCVEGIDNDEAEGTTELLLLAIEVALLNNNVSTASTIFDNYTNAIEDTVSGDNEMILNLAESYIKFATNKETATSNFYYYEELSQTFPTWKTQLGLLNLHLQQRNIAEAQGIVELLLSDYYSVEQKENAVLYKPTFLANQITLALMQGLDTEDLTNQLVKLDHEHAFIKHHQEIDAKFDELVRKYDTSN
# B2: Tps1 (protein, UniProt Q00764 1-495)
# chain: MTTDNAKAQLTSSSGGNIIVVSNRLPVTITKNSSTGQYEYAMSSGGLVTALEGLKKTYTFKWFGWPGLEIPDDEKDQVRKDLLEKFNAVPIFLSDEIADLHYNGFSNSILWPLFHYHPGEINFDENAWLAYNEANQTFTNEIAKTMNHNDLIWVHDYHLMLVPEMLRVKIHEKQLQNVKVGWFLHTPFPSSEIYRILPVRQEILKGVLSCDLVGFHTYDYARHFLSSVQRVLNVNTLPNGVEYQGRFVNVGAFPIGIDVDKFTDGLKKESVQKRIQQLKETFKGCKIIVGVDRLDYIKGVPQKLHAMEVFLNEHPEWRGKVVLVQVAVPSRGDVEEYQYLRSVVNELVGRINGQFGTVEFVPIHFMHKSIPFEELISLYAVSDVCLVSSTRDGMNLVSYEYIACQEEKKGSLILSEFTGAAQSLNGAIIVNPWNTDDLSDAINEALTLPDVKKEVNWEKLYKYISKYTSAFWGENFVHELYSTSSSSTSSSATKN
# B3: Sec33 (α-COP) (protein, UniProt P53622 1-1201)
# chain: MKMLTKFESKSTRAKGIAFHPSRPWVLVALFSSTIQLWDYRMGTLLHRFEDHEGPVRGLDFHPTQPIFVSAGDDYTIKVWSLDTNKCLYTLTGHLDYVRTVFFHRELPWIISASDDQTIRIWNWQNRKEIACLTGHNHFVMCAQFHPTDDLIVSASLDETIRIWDISGLRKRHSAPGTSSFEEQMSAQQNLLDGSLGDCVVKFILEGHTRGVNWASFHPTLPLIVSGSDDRQVKLWRMSATKAWEVDTCRGHTNNVDSVIFHPHQNLIISVGEDKTLRVWDLDKRTPVKQFKRENDRFWLIAAHPHINLFGAAHDSGIMVFKLDRERPCSFIHQNQLFFVNAEKQIQSFNFQKRVASLPYASLKGIGQPWDAFRSISYNPSQHSVLVNEANGKFALVILPKQPVGAVEPTSVTQDTGNFATFVGRNRFVVYNKNTESVEVRSLENKVTRNIKVEETVRTIVAAGPGSVLVIHPREVILYDVQQGKKVSQLAVKNVKYVSWSLDGQYVALMSKHTITLATKKLELINSMHETIRIKSAAWDETGVLIYSTLNHIRYSLLNGDRGIIKTLEKTLYITKVQGKLVYCLNREGEIEILTIDPTEYRFKKALVNKNFPEVLRLIKDSNLVGQNIISYLQKSGYPEIALQFVQDPHIRFDLALEYGNLDVALDEAKKLNDSSTWERLIQEALAQGNASLAEMIYQTQHSFDKLSFLYLVTGDVNKLSKMQNIAQTREDFGSMLLNTFYNNSTKERSSIFAEGGSLPLAYAVAKANGDEAAASAFLEQAEVDEQDVTLPDQMDASNFVQRPVISKPLEKWPLKEAELSYFEKAVLGQIDDLTIDDETPAVNTTQEQEEPLGEENFNDEDIGEDEGAWDLGDEDLDVGEELPEEVEQGEITSPAQEVETAIWIKNSKLPAVLVAAGAFDAAVQALSKQVGVVKLEPLKKYFTNIYEGCRTYIPSTPCELPAQLGYVRAYDDTVSEDQILPYVPGLDVVNEKMNEGYKNFKLNKPDIAIECFREAIYRITLLMVDDAEDEKLAHKILETAREYILGLSIELERRSLKEGNTVRMLELAAYFTKAKLSPIHRTNALQVAMSQHFKHKNFLQASYFAGEFLKIISSGPRAEQARKIKNKADSMASDAIPIDFDPYAKFDICAATYKPIYEDTPSVSDPLTGSKYVITEKDKIDRIAMISKIGAPASGLRIRV
# B4: Sec21 (γ-COP) (protein, UniProt P32074 1-935)
# chain: MSAHTYKKFENSTSGDLPDKMTIYQDCMNTFNESPVNSKRCRLLISRLLRLLAQGETFPQNEATALFFSISKLFQHQNDPLRQAVYLAIKELSGISEDVLMATSSIMKDVQNGSDLIKPDAIRSLTYVLDESTAFSAERLLKSAVVSRHPSISSAALCTSYHLLPISEVTIRRFTNETQEAVLDLKQFPNQHGNSEYYPNSTYISQYHALGLLYQLKKTDKMALLKLVRHFSENNSMKNQLAKVELVKIVNDLIYRDPQLFSQFRPLLSDWLSNKFESVQLETAKLITSFATRNSRLVAPELYAAAISALQSLLTVPRVSSRFAALRILNRISMVSPEKIVVCNPELESLINDSNRNISTYAITTLLKTGTSKNISSLISTITNFIHDVSDDFKIIIIDAVRTLSLNFPQEWKSILNFLIDVLKNSEGGFKFKNSIVEALIDIVSFVPQSKELALENLCDFIEDCEFNEILVRILHLLGKEGPSAPNPSLYVRHIYNRVVLENSIIRSAAVVALSKFALTKNDPTLYESIISLLKRIANDKDDEVRDRATIALEFIDSARNKDDVIAQNLIESKYFYDIPSLESKLSSYISSNTDSFATAFDVNQVRKFTEDEMKAINLKRKQEQIFNQKSETTLDTTPEAESVPEKRADANSFAGPNLDDHQEDLLATKYADELLSIEQIKPFGQLVNSSRAISLTEPEAEFVVRGVKHLFKDNVVLQFNITNTLTDIALDNVSVVCTPEISDEAELEELFTLQVDRLLPSEEAACYVAFKKLDEIVMEGFLNNLTFTTKEINPDTNEPFDGDEGFQDEYEIDSIFLNAGDYVKSSFTGNFSATFDELPCEEVAVFNIQEDLSIQEVVDKIILNSSCLPVESTQFAPSDSNSHTLKLFGKSALTGSKVALQIKMIKSSKGLALKVHGKGEDSLLCSDLVNGLMQ
# B5: Sec26 (β-COP) (protein, UniProt P41810 1-973)
# chain: MTSLSSQPAYTLVFDPSPSMETYSSTDFQKALEKGSDEQKIDTMKSILVTMLEGNPMPELLMHIIRFVMPSKNKELKKLLYFYWEIVPKLAEDGKLRHEMILVCNAIQHDLQHPNEYIRGNTLRFLTKLREAELLEQMVPSVLACLEYRHAYVRKYAILAVFSIFKVSEHLLPDAKEIINSFIVAETDPICKRNAFIGLAELDRENALHYLENNIADIENLDPLLQAVFVQFIRQDANRTPALKAQYIELLMELLSTTTSDEVIFETALALTVLSANPNVLVPAVNKLIDLAVKVSDNNIKLIVLDRIQDINANNVGALEELTLDILRVLNAEDLDVRSKALDISMDLATSRNAEDVVQLLKKELQTTVNNPDQDKAMQYRQLLIKTIRTVAVNFVEMAASVVSLLLDFIGDLNSVAASGIIAFIKEVIEKYPQLRANILENMVQTLDKVRSAKAYRGALWIMGEYAEGESEIQHCWKHIRNSVGEVPILQSEIKKLTQNQEHTEENEVDATAKPTGPVILPDGTYATESAFDVKTSQKSVTDEERDSRPPIRRFVLSGDFYTAAILANTIIKLVLKFENVSKNKTVINALKAEALLILVSIVRVGQSSLVEKKIDEDSLERVMTSISILLDEVNPEEKKEEVKLLEVAFLDTTKSSFKRQIEIAKKNKHKRALKDSCKNIEPIDTPISFRQFAGVDSTNVQKDSIEEDLQLAMKGDAIHATSSSSISKLKKIVPLCGFSDPVYAEACITNNQFDVVLDVLLVNQTKETLKNLHVQFATLGDLKIIDTPQKTNVIPHGFHKFTVTVKVSSADTGVIFGNIIYDGAHGEDARYVILNDVHVDIMDYIKPATADDEHFRTMWNAFEWENKISVKSQLPTLHAYLRELVKGTNMGILTPSESLGEDDCRFLSCNLYAKSSFGEDALANLCIEKDSKTNDVIGYVRIRSKGQGLALSLGDRVALIAKKTNKLALTHV
# B6: Bat2 (protein, UniProt P47176 1-376)
# chain: MTLAPLDASKVKITTTQHASKPKPNSELVFGKSFTDHMLTAEWTAEKGWGTPEIKPYQNLSLDPSAVVFHYAFELFEGMKAYRTVDNKITMFRPDMNMKRMNKSAQRICLPTFDPEELITLIGKLIQQDKCLVPEGKGYSLYIRPTLIGTTAGLGVSTPDRALLYVICCPVGPYYKTGFKAVRLEATDYATRAWPGGCGDKKLGANYAPCVLPQLQAASRGYQQNLWLFGPNNNITEVGTMNAFFVFKDSKTGKKELVTAPLDGTILEGVTRDSILNLAKERLEPSEWTISERYFTIGEVTERSKNGELLEAFGSGTAAIVSPIKEIGWKGEQINIPLLPGEQTGPLAKEVAQWINGIQYGETEHGNWSRVVTDLN
# B7: Sec27 (β′-COP), endogenous (protein, UniProt P41811 1-889)
# chain: MKLDIKKTFSNRSDRVKGIDFHPTEPWVLTTLYSGRVELWNYETQVEVRSIQVTETPVRAGKFIARKNWIIVGSDDFRIRVFNYNTGEKVVDFEAHPDYIRSIAVHPTKPYVLSGSDDLTVKLWNWENNWALEQTFEGHEHFVMCVAFNPKDPSTFASGCLDRTVKVWSLGQSTPNFTLTTGQERGVNYVDYYPLPDKPYMITASDDLTIKIWDYQTKSCVATLEGHMSNVSFAVFHPTLPIIISGSEDGTLKIWNSSTYKVEKTLNVGLERSWCIATHPTGRKNYIASGFDNGFTVLSLGNDEPTLSLDPVGKLVWSGGKNAAASDIFTAVIRGNEEVEQDEPLSLQTKELGSVDVFPQSLAHSPNGRFVTVVGDGEYVIYTALAWRNKAFGKCQDFVWGPDSNSYALIDETGQIKYYKNFKEVTSWSVPMHSAIDRLFSGALLGVKSDGFVYFFDWDNGTLVRRIDVNAKDVIWSDNGELVMIVNTNSNGDEASGYTLLFNKDAYLEAANNGNIDDSEGVDEAFDVLYELSESITSGKWVGDVFIFTTATNRLNYFVGGKTYNLAHYTKEMYLLGYLARDNKVYLADREVHVYGYEISLEVLEFQTLTLRGEIEEAIENVLPNVEGKDSLTKIARFLEGQEYYEEALNISPDQDQKFELALKVGQLTLARDLLTDESAEMKWRALGDASLQRFNFKLAVEAFTNAHDLESLFLLHSSFNNKEGLVTLAKDAERAGKFNLAFNAYWIAGDIQGAKDLLIKSQRFSEAAFLGSTYGLGDDAVNDIVTKWKENLILNGKNTVSERVCGAEGLPGSSSSGDAQPLIDLDSTPAPEQADENKEAEVEDSEFKESNSEAVEAEKKEEEAPQQQQSEQQPEQGEAVPEPVEEES
# Target: T1, Cex1-HA (S. cerevisiae)
# Experiment: affinity purification with mass spectrometry; Cex1-HA as bait on magnetic anti-HA MicroBeads, MYC-beads as control; lysate in 0.33% NP40, 50 mM Tris-HCl pH8, 50 mM NaCl, 1 mM PMSF; 30 min on ice; three independent IPs; nano-LC-MS/MS
row,binding,Molecule
1,binds,Epo1
2,binds,Mlp1 (from UniProt Q02455 1-1875)
3,binds,B1
4,binds,B2
5,binds,B3
6,binds,B4
7,binds,B5
8,binds,B6
9,binds,B7

# Results are given in words; binding and its absence hold for the method and conditions named. Binding seen in cells or lysates may run through a third protein. A yes stands for co-enrichment or nearness to the bait. Other partners may have been found. Tags and fused reporters may be left off the sequences shown.
